About 45 (2%) of roughly 3,000 compounds showed an effect of 50% or more. Some of the results follow.
What follows are compounds tested on MOLM1 and UCSD/AML1 (averaged) (assay: cell viability relative to DMSO control (POC); higher = less growth inhibition). Details: 1 µM; 72 h.
Procedure: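 Primary viability screen in the 3q26 EVI1-high AML cell lines MOLM1 and UCSD/AML1, compounds at 1 uM for 72 h. ATP CellTiter-Glo read-out given as percent viable over DMSO control (POC), averaged over duplicates. This mapping covers the TimTec NDL-3000 natural derivative library, whose compounds are identified by TimTec catalogue codes (ST...).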

| SMILES | cell viability [%] |
| --- | --- |
| COc1cc(C2C(C#N)=C(N)Oc3n[nH]c(C(C)(C)C)c32)ccc1O (stereo unspecified) | 118 |
| CC(C)CC1(NC(=O)c2ccccc2)COCOC1=O (stereo unspecified) | 95.3 |
| COc1ccccc1CCNC(=O)Cc1c(C)c2cc3c(C)coc3c(C)c2oc1=O | 103 |
| Cc1[nH]c2c(Cl)ccc(Cl)c2c1CCNC(=O)Cn1nc(-c2ccc(Cl)cc2)c2ccccc2c1=O | 98.8 |
| COc1ccc(C(=O)Nc2cc3c(cc2C)OCO3)cc1OC | 96.5 |
| Cc1ccc(NC(=O)C(Cc2c[nH]c3ccccc23)NC(=O)Oc2ccccc2)cc1 (stereo unspecified) | 93.2 |
| COc1ccc2c(c1)c(CC(=O)Nc1ccc3c(c1)OCCO3)c(C)n2C(=O)c1ccc(Cl)cc1 | 89 |
| Cc1ccc(OCCSc2nc3ncnc(N)c3[nH]2)cc1 | 114 |
| CC(=O)OC1CCC2(C)C(CCC3(C)C2C(=O)C=C2C4CC(C)(C(=O)Nc5ccc(N=Nc6ccccc6)cc5)CCC4(C)CCC23C)C1(C)C (stereo unspecified) | 100 |
| COCCOC(=O)c1c(C)n(CCNc2ccc([N+](=O)[O-])cc2)c2c1cc(O)c1ccccc12 | 102 |
| Nc1ccc2oc(=O)ccc2c1 | 99.2 |
| COc1cc(C(=O)CCNc2ccc(F)cc2)cc(OC)c1OC | 78.3 |
| Cc1ccc(-n2c(SCc3cn4ccccc4n3)nc3c(=O)[nH]cnc32)cc1 | 98.3 |
| Cc1nn(-c2ccccc2)c(C)c1/C=C/C(=O)c1ccc2c(c1)OCO2 | 95.8 |
| Cc1[nH]c(=O)[nH]c(=O)c1S(=O)(=O)Nc1cccc(C(=O)O)c1 | 99.6 |
| N#CC1=C(N)Oc2c(oc(CO)cc2=O)C1c1cccc(Cl)c1 (stereo unspecified) | 104 |
| COc1cc(-c2nnc(SCc3csc(-c4ccc(C)cc4)n3)o2)cc(OC)c1OC | 92.1 |
| Cc1cc(=O)n(C)c(=O)n1Cc1ccccc1C(=O)O | 101 |
| CCc1ccc(NC(=O)Cn2c(=O)cc(C(=O)N(C)C)c3ccccc32)cc1 | 101 |
| CCOc1cc(C2C3=C(CC(C)(C)CC3=O)N(c3ccc(C)cc3)C3=C2C(=O)CC(C)(C)C3)ccc1O | 100 |
| CC(=O)O[C@]1(C(=O)CO)CCC2C3CCC4=CC(=O)CC[C@]4(C)C3[C@@H](O)C[C@@]21C (stereo partly specified) | 79.2 |
| CCCCCCCCCCC(=O)CCCC(=O)O | 72.8 |
| O=C(Cn1c(=O)cc(C(=O)NCc2ccccc2)c2ccccc21)Nc1ccc2c(c1)OCO2 | 87.3 |
| COc1ccc2nc(NC(=O)CN3CCN(C(=O)c4ccco4)CC3)sc2c1 | 102 |
| Cc1ccc(NC(=O)CSc2nc3ccccc3c(=O)[nH]2)cc1 | 105 |
| Cc1ccc(-n2c(SCC(=O)Nc3cccc(C)c3)nc3c(=O)[nH]cnc32)cc1 | 104 |

| SMILES | cell viability [%] |
| --- | --- |
| Cc1ccc2ccccc2c1CSc1nc(N)cc(=O)[nH]1 | 94.7 |
| O=c1[nH]c2ccc(Cl)cc2c(-c2ccccc2)c1N1CCN(CCO)CC1 | 57 |
| CCN(CC)CCN1C(=O)c2ccccc2NC1c1cc(OC)c(OC)c(OC)c1 (stereo unspecified) | 99.2 |
| Cn1c(=O)[nH]c(=O)c2c1ncn2CC(=O)O | 96.8 |
| O=C(O)C1NCCc2ccccc21 (stereo unspecified) | 101 |
| CC(CCc1ccccc1)NC(=O)CSc1nc2ccccc2c(=O)[nH]1 (stereo unspecified) | 102 |
| Cc1cc2nc[nH]c2c(N=Cc2c(O)c(O)c(C(C)C)c3cc(C)c(-c4c(C)cc5c(C(C)C)c(O)c(O)c(C=Nc6c(C)c(C)cc7nc[nH]c67)c5c4O)c(O)c23)c1C | 99.7 |
| Cc1cc(C)c2c(CN3CCN(c4cc(Cl)ccc4C)CC3)cc(=O)oc2c1 | 105 |
| COc1ccc(C2C3CCCCC3(O)CCN2C(=O)/C=C/c2ccc(OC)c(OC)c2)c(OC)c1 (stereo unspecified) | 113 |
| COc1cc(/C=C2\SC(=Nc3ccccc3)NC2=O)ccc1O | 69.8 |
| C=CCNC(=O)c1c(O)c2cc(OC)c(OC)cc2n(CC=C)c1=O | 85.7 |
| Cn1c(=O)c2c(nc(N3CCOCC3)n2CCCNC2=NCCCC2)n(C)c1=O | 102 |
| COc1cc(C(C)=O)cc(OC)c1O | 102 |
| CC(=O)OC1CCC2(C)C(CCC3(C)C2C(=O)C=C2C4CC(C)(C(=O)OC(C)N5CCCCC5)CCC4(C)CCC23C)C1(C)C (stereo unspecified) | 86.9 |
| COc1ccc(C2CC(=O)c3ccccc3O2)cc1 (stereo unspecified) | 96.2 |
| Cc1cc2oc(=O)c([N+](=O)[O-])c(O)c2cc1Cl | 97.5 |
| COc1ccc(C2C3CCCCC3(O)CCN2C(=O)c2ccccc2)c(OC)c1 (stereo unspecified) | 101 |
| COc1ccc(C(=O)Nc2cccc(C3OCCO3)c2)cc1OC | 96.5 |
| O=C(O)C(=O)c1ccccc1C(=O)O | 95 |
| CCOc1ccc2oc(=O)cc(CN3CCN(CC(=O)Nc4cc(F)ccc4F)CC3)c2c1 | 98.5 |
| O=C(Nc1ccc(Cl)cc1Cl)C1CC2CC3CCC1C2C3 (stereo unspecified) | 97.6 |
| CCOC(=O)COc1ccc(C=C(C#N)C#N)cc1OC | 93.9 |
| COc1ccccc1NC(=O)COC(=O)c1cc(=O)n(C)c(=O)n1C | 94.5 |
| CC1=CC(=O)c2ccccc2C1=O | 87 |
| Cc1ncnc2nc[nH]c12 | 3.11 |
| CN1CCc2[nH]c3ccccc3c2C1 | 110 |

| SMILES | cell viability [%] |
| --- | --- |
| C#C[C@]1(OC(C)=O)CC[C@H]2[C@@H]3CCC4=CC(=O)CC[C@@H]4[C@H]3CC[C@@]21C | 81.9 |
| Cc1ccc(-n2c(SCC(=O)Nc3ccc(C(C)C)cc3)nc3c(=O)[nH]cnc32)cc1 | 100 |
| COc1cc(C(=O)NNC(=O)CCCCCCCC(=O)NNC(=O)c2cc(OC)c(OC)c(OC)c2)cc(OC)c1OC | 102 |
| CCN(CC)CCNc1c(N)c(=O)oc2ccccc12 | 94.5 |
| CCCc1[nH]nc2c1C(c1cc(OC)c(OC(C)=O)c(OC)c1)C(C#N)=C(N)O2 (stereo unspecified) | 101 |
| COc1cc(OC)cc(C2C(C#N)=C(N)OC3=C2C(=O)CCC3)c1 (stereo unspecified) | 87.3 |
| Cn1c(C(=O)NCCOc2ccccc2Cl)cc(=O)n(C)c1=O | 110 |
| CCCCOC1CC[C@@]2(C)C(=CC[C@H]3[C@@H]4CC[C@H]([C@H](C)CCCC(C)C)[C@@]4(C)CC[C@@H]32)C1 (stereo partly specified) | 101 |
| COc1ccc2c(c1)c(CC(=O)Nc1ccccn1)c(C)n2C(=O)c1ccc(Cl)cc1 | 101 |
| O=C(/C=C/c1ccccc1)c1cc(O)ccc1O | 93.7 |
| Cc1ccc(OCCSc2ncnc3nc[nH]c23)cc1 | 92.7 |
| COc1ccc2[nH]c3c(c2c1)CCNC3c1ccc(OC)c(COc2ccc([N+](=O)[O-])c(C)c2)c1 (stereo unspecified) | 64.7 |
| Cc1ccccc1Cn1cc(NC(=S)N2CCc3ccccc3C2)cn1 | 99.5 |
| CCn1c(=O)c(NC(=O)c2ccccc2)c(C(=O)Nc2ccccc2)c2ccccc21 | 93 |
| C=C(C)C1CCC2(COC(=O)/C=C/c3ccccc3)CCC3(C)C(CCC4C5(C)CCC(OC(=O)/C=C/c6ccccc6)C(C)(C)C5CCC43C)C12 (stereo unspecified) | 104 |
| CSc1ccc(OCCN=Cc2c(O)c(O)c(C(C)C)c3cc(C)c(-c4c(C)cc5c(C(C)C)c(O)c(O)c(C=NCCOc6ccc(SC)cc6)c5c4O)c(O)c23)cc1 | 113 |
| CCOC(=O)/C=C/c1cccc([N+](=O)[O-])c1 | 101 |
| O=C(Cn1c(=O)cc(C(=O)N2CCOCC2)c2ccccc21)Nc1ccccc1F | 97.1 |
| O=C(OCc1ccccc1)C1CCCN1c1nc(-c2ccc(Br)cc2)cs1 (stereo unspecified) | 99.9 |
| Cc1cccc(NC(=O)C(Cc2c[nH]c3ccccc23)NC(=O)Oc2ccccc2)c1 (stereo unspecified) | 102 |
| COc1cc(C(=O)N(Cc2nc(-c3cccc(C)c3)no2)C(C)C)cc(OC)c1OC | 96.2 |
| CCOc1cc(C2C(C(=O)OC)=C(C)NC3=C2C(=O)CC(c2ccc(OC)cc2)C3)cc(Br)c1O (stereo unspecified) | 111 |
| O=c1c(Cc2ccccc2)c(O)c2ccccc2n1-c1ccccc1 | 102 |
| COc1cc(C(=O)N2N=C3CCCCC3C2(O)C(F)(F)F)cc(OC)c1OC (stereo unspecified) | 106 |
| COc1ccc(CC(=O)NNC(=O)CCC(=O)O)cc1 | 108 |
| CC1(C)OC(c2cccc(OCc3cc(=O)[nH]c4ccccc34)c2)OC1(C)C | 102 |

Individual results from the results shown.
cell viability [%], CCn1c(=O)c(NC(=O)c2ccccc2)c(C(=O)Nc2ccccc2)c2ccccc21 reads 93
cell viability [%], CSc1ccc(OCCN=Cc2c(O)c(O)c(C(C)C)c3cc(C)c(-c4c(C)cc5c(C(C)C)c(O)c(O)c(C=NCCOc6ccc(SC)cc6)c5c4O)c(O)c23)cc1 reads 113

Next part.

| SMILES | cell viability [%] |
| --- | --- |
| COc1cc(C(=O)CCN(C)C)cc(OC)c1OC | 83 |
| Cc1cc(=O)oc2cc(OCC(=O)Oc3ccc(Cl)c(Cl)c3)ccc12 | 102 |
| Cc1c(-c2ccc(O)cc2)c(=O)oc2ccc(Br)cc12 | 97.1 |
| COc1ccc(C(=O)Nc2ccc(C)cc2Br)cc1OC | 101 |
| CN(C)c1ccc(/C=N/NC(=O)CNc2n[nH]c(=O)[nH]c2=O)cc1 | 96.6 |
| Cc1ccc2c(CN3CCN(Cc4cccc(Br)c4)CC3)cc(=O)oc2c1 | 106 |
| COc1ccc(-c2oc3cc(C)ccc3c(=O)c2O)cc1 | 93.9 |
| COc1ccc2[nH]cc(CCNC(=O)C(=O)c3c(-c4ccccc4)n(C)c4ccccc34)c2c1 | 95.2 |
| COC(=O)C1CC23CCC[N+]4(C)CCC5(c6ccccc6NC15CC2)C34 (stereo unspecified) | 98.6 |
| Cc1ccc2c(O)c([N+](=O)[O-])c(=O)oc2c1 | 103 |
| CCOc1ccc(CCNC(=O)c2cc3ccccc3oc2=O)cc1OCC | 95.7 |
| CCCCCCCCOCCNC(=O)c1cc(OC)c(OC)c(OC)c1 | 96.6 |
| COc1ccc2[nH]cc(CCNS(=O)(=O)Cc3ccccc3)c2c1 | 100 |
| COc1ccc(-c2coc3cc(OC)c(OC)cc3c2=O)cc1 | 97 |
| COC(=O)C(Cc1ccc(O)cc1)NC(=O)C(NC(=O)OCc1ccccc1)C(C)C (stereo unspecified) | 84.7 |
| CCNC(=O)C(=O)NCCc1c[nH]c2ccccc12 | 109 |
| CCOC(=O)C1=C(c2ccccc2)N(C)C(=O)NC1c1ccc(O)c(OC)c1 (stereo unspecified) | 91.8 |
| CC(=O)OC1CCC2(C)C(=CCC3C2CCC2(C)C3CC3OC32[C@H](C)OC(C)=O)C1 (stereo partly specified) | 107 |
| COc1cc(C2C(C(=O)OC(C)C)=C(C)NC3=C2C(=O)CCC3)cc(Cl)c1O (stereo unspecified) | 113 |
| O=c1oc2cc(O)ccc2c(Cc2ccc(Cl)cc2)c1-c1ccccc1 | 99.4 |
| COC(=O)c1cc(OC)c(OC)cc1NC(=O)c1c[nH]c2ccccc12 | 94.5 |
| CNC(=O)Cn1cnc2c1c(=O)n(C)c(=O)n2C | 98.1 |
| Cn1c(=O)c2c(nc3scc(CN4CCNCC4)n32)n(C)c1=O | 105 |

Quoted at random: 3 compounds from above

| SMILES | cell viability [%] |
| --- | --- |
| CN(C)c1ccc(/C=N/NC(=O)CNc2n[nH]c(=O)[nH]c2=O)cc1 | 96.6 |
| O=c1oc2cc(O)ccc2c(Cc2ccc(Cl)cc2)c1-c1ccccc1 | 99.4 |
| COC(=O)C(Cc1ccc(O)cc1)NC(=O)C(NC(=O)OCc1ccccc1)C(C)C (stereo unspecified) | 84.7 |

— the supplement of paper PMC11150407
